PubChem BioAssay AID1259405 | NCATS – 2018
Aim: 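Silenced genes that increase secreted GFP made by CHO cells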 (primary screen). Cell system: Chinese hamster CHO-K1 ovary cells with stable secreted eGFP expression. Reagents: single siRNA against mouse genes, 0.8 pmol siRNA per well (2 µl of 400 nM stock). Duration: 3 days. Detection: 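Per-well intracellular GFP measured by laser scanning cytometry, plus viability from ATP luminescence, each relative to plate median of non-targeting control wells, in %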. Scale: GFP, % of control: higher = more GFP per well, higher productivity; viability (ATP), % of control: higher = more viable cells (more ATP). Active means: 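Called active when intracellular GFP, relative to negative control, is at or above 120%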.
The whole screen tested about 50,000 reagents; shown is a random part of them. About 4,000 of all reagents (8%) count as active. 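Mouse siRNA library applied to hamster cells; one well for each siRNA.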 The numbers tell different reagents against one gene apart.

| target | reagent no. | GFP, % of control | viability (ATP), % of control | call |
| --- | --- | --- | --- | --- |
| Mfsd6l | 1 | 95.1 | 123 | inactive |
| Mfsd6l | 2 | 94.9 | 85.1 | inactive |
| Mfsd6l | 3 | 158 | 140 | active |
| 4921524J17Rik | 1 | 99.6 | 95.1 | inactive |
| 4921524J17Rik | 2 | 71 | 53.2 | inactive |
| 4921524J17Rik | 3 | 87.6 | 108 | inactive |
| Pip | 1 | 61.1 | 45.3 | inactive |
| Pip | 2 | 55.2 | 85.3 | inactive |
| Pip | 3 | 106 | 95.2 | inactive |
| Rasgrf2 | 1 | 131 | 111 | active |
| Rasgrf2 | 2 | 68 | 42.2 | inactive |
| Rasgrf2 | 3 | 91.4 | 77.4 | inactive |
| Tfrc | 1 | 98.1 | 73.8 | inactive |
| Tfrc | 2 | 72.7 | 69.8 | inactive |
| Tfrc | 3 | 60.1 | 58.6 | inactive |
| Skint4 | 1 | 60 | 59 | inactive |
| Skint4 | 2 | 47.4 | 40.7 | inactive |
| Skint4 | 3 | 91.4 | 96.5 | inactive |
| Ctif | 1 | 76.2 | 74.8 | inactive |
| Ctif | 2 | 73.1 | 103 | inactive |
| Ctif | 3 | 84.5 | 70.4 | inactive |
| Alox5ap | 1 | 111 | 122 | inactive |
| Alox5ap | 2 | 53.9 | 62.7 | inactive |
| Ubp1 | 1 | 63.4 | 63.1 | inactive |
| Ubp1 | 2 | 75.7 | 69.8 | inactive |
| Ubp1 | 3 | 63.6 | 97.5 | inactive |
| Gadd45gip1 | 1 | 87.8 | 111 | inactive |
| Gadd45gip1 | 2 | 58.7 | 75.1 | inactive |
| Gadd45gip1 | 3 | 90 | 57.9 | inactive |
| Gpr143 | 1 | 106 | 64.8 | inactive |
| Gpr143 | 2 | 91.7 | 88.8 | inactive |
| Phf11d | 1 | 109 | 70.5 | inactive |
| Phf11d | 2 | 59.9 | 79.4 | inactive |
| Phf11d | 3 | 43.8 | 75 | inactive |

Already shown: an excerpt of the list.
| target | reagent no. | GFP, % of control | viability (ATP), % of control | call |
| --- | --- | --- | --- | --- |
| Ubp1 | 2 | 75.7 | 69.8 | inactive |
| Ubp1 | 3 | 63.6 | 97.5 | inactive |
| Gadd45gip1 | 1 | 87.8 | 111 | inactive |
